Laboratory results: PubChem BioAssay AID504764 (Drosophila RNAi Screening Center, 2011)
In all, the deposit lists about 22,000 reagents; shown is a random part of those that have a named target and a result. Of all reagents, 403 (1.9%) got an active call. 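Unnormalised raw counts per well; ratio z-scores behind the hit calls and whether each hit raises or lowers signal are not deposited.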 Entries without a mark were called inactive. No sequences are given here. Not stated in the record: the amount of reagent.

Screen: 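Knock-downs that raise or lower a Notch target reporter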 (primary screen)
Cells: Drosophila Kc167 cells
Reagents: long dsRNA against Drosophila genes
Time to read-out: about 5 days (4 days dsRNA, then 24 h after transfection)
Treatment: transfection of constitutively active membrane-tethered Notch lacking the extracellular domain, read 24 h later
Detection: 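Light from a Notch-responsive E(spl)m3 luciferase reporter under active Notch, with control-promoter and no-Notch reporter wells to normalise; raw counts from paired wells a and b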
Direction: induced reporter light, run 1, well a and induced reporter light, run 1, well b: higher = more light from the Notch target reporter with active Notch; control promoter light, run 1, well a and control promoter light, run 1, well b: higher = more light from the viral control promoter (cell number, transfection, viability); uninduced reporter light, run 1, well a: higher = more light from the Notch target reporter without active Notch
Hit rule: 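Wells with low control signal or poorly matching duplicates excluded; duplicates averaged; per source plate, z beyond ±2 for induced/control log2 ratio or beyond ±1.8 for induced/uninduced marks a hit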
Calls: active = modifier hit (raised or lowered Notch signal); inactive = not a hit

target gene,"induced reporter light, run 1, well a","induced reporter light, run 1, well b","control promoter light, run 1, well a","control promoter light, run 1, well b","uninduced reporter light, run 1, well a"
CG11044,92495,68410,1.03e5,91410,6032
CG13488,40175,42570,54460,39820,3765
CG13255,1.28e5,1.08e5,65525,62920,10920
Jig,3.44e5,2.75e5,2.62e5,2.57e5,21250
Ccp84Ab,1.13e5,1.17e5,75765,64490,7542
stil,1.82e5,1.85e5,1.85e5,1.91e5,14855

Continued (2 carried over from the part before).
target gene,"induced reporter light, run 1, well a","induced reporter light, run 1, well b","control promoter light, run 1, well a","control promoter light, run 1, well b","uninduced reporter light, run 1, well a"
Ccp84Ab,1.13e5,1.17e5,75765,64490,7542
stil,1.82e5,1.85e5,1.85e5,1.91e5,14855
Obp56i,1.67e5,1.66e5,3.00e5,3.20e5,13275
CG31792,40455,43710,50005,40575,2070
CG7006,1.55e5,2.06e5,2.15e5,2.13e5,14095
Polr2A,31915,32645,33500,41950,2155
Jon99Cii,3330,3275,7445,7760,380
comm,2.84e5,2.36e5,3.89e5,2.99e5,10480
eIF3a,5910,5335,6140,4775,520
bys,1.58e5,1.39e5,1.94e5,1.68e5,9645
CG14230,1.67e5,1.33e5,1.03e5,86695,12165
Cul1,1.77e5,1.41e5,95745,1.16e5,12900
mdu,7580,7680,3755,4540,2860
Proc-R,1.51e5,1.56e5,3.75e5,3.15e5,12340
CG5781,1.34e5,1.61e5,1.31e5,1.25e5,12790
TAF1B,1.23e5,1.31e5,89495,96370,9930
